Experimental data as given in PubChem BioAssay AID504444 (National Center for Advancing Translational Sciences (NCATS), 2011).
In all, about 360,000 compounds went through this assay and about 7,500 (2.1%) were called active. Inconclusive results, whose numbers are uncertain, are shown with a selection of clear calls. Calls come from the whole dose curve; as a rule, active = well fitted inhibition curve with a large enough effect; inconclusive = small, poorly fitted or top-dose-only effect, or effect the other way; inactive = flat fitted curve, though single readings scatter. Where the call is inconclusive, the potency comes from a doubtful curve fit.

Test: Nrf2 qHTS screen for inhibitors; note: nearly all actives have a fitted effect of over 60% in size
Settings: A549 ARE-Fluc reporter, luciferase luminescence, 18-24 h; activity change, negative = inhibition: at 46 µM (top of the series)
Summary of the method: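 In this cell-based qHTS, ARE-driven firefly luciferase in A549 cells reports Nrf2 activity; the luminescent signal after BugLite lysis is the measured value, with a prior CellTiter-Fluor read for cell health.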
% is set by controls: 0 for no effect and ±100 for the full control effect; potency is the fitted concentration of half-maximal effect.

SMILES	Potency	activity change, negative = inhibition
CCCC(=O)Nc1nc(-c2ccc3c(c2)CCN3S(C)(=O)=O)cs1	active: 8.2 µM	–
COc1ccc(N(Cc2cc3ccc(C)cc3[nH]c2=O)S(=O)(=O)c2ccccc2)cc1	inconclusive: 29.1 µM [falling, single point]	–
Cc1c(C(=O)NCCSCc2ccc(Cl)cc2Cl)cccc1[N+](=O)[O-]	inconclusive: 18.4 µM [falling, single point]	–
COCc1nc2oc3ccc(F)cc3c(=O)c2cc1C(=O)OC	inconclusive: 6.51 µM [activator, full curve]	–
CCOc1ccc(S(=O)(=O)N2CCN(C(=S)NCc3ccccc3)CC2)cc1	active: 25.9 µM	–
COc1ccccc1NC(=O)c1ccc(-c2nc(COc3ccc(C)cc3)c(C)o2)cc1	inconclusive: 20.6 µM [falling, single point]	–
Cc1ccc(NC(=O)Nc2c(C)n(C)n(-c3ccccc3)c2=O)c(Cl)c1	–	inactive: 1.81%
C=CCn1cc(C(=O)NCc2ccc3c(c2)OCO3)c(=O)c2cc(S(=O)(=O)N(CC)CC)ccc21	inconclusive: 18.4 µM [falling, single point]	–
CCc1ccc(-c2cc(C)no2)cc1S(=O)(=O)N1CCOc2ccccc21	inconclusive: 23.1 µM [falling, single point]	–
COc1cc(NC(=O)C(C)Oc2ccccc2)ccc1NC(=O)COc1ccccc1 (stereo not drawn)	inconclusive: 20.6 µM [falling, single point]	–
O=C(CSc1ncc2c(n1)-c1cc(Cl)ccc1N(Cc1ccccc1)S2(=O)=O)NCCc1ccccc1	inconclusive: 29.1 µM [falling, single point]	–
COc1cccc(NC(=S)N(CCc2c(C)[nH]c3ccccc23)Cc2cccs2)c1	inconclusive: 32.6 µM [falling, single point]	–
CS(=O)(=O)Nc1ccc(-c2nc3ccccc3s2)cc1	inconclusive: 1.16 µM [activator, partial curve]	–
O=C(CCS(=O)(=O)Cc1ccccc1F)N1CCc2ccccc2C1	inconclusive: 7.31 µM [activator, full curve]	–
CC1(C)OC(=O)N(CCc2ccccc2)C1(C)O (stereo not drawn)	inconclusive: 4.61 µM [activator, single point]	–
COc1ccc(NC(=O)c2cccn2-c2nnc(N3CCCCC3)s2)c(OC)c1	inconclusive: 23.1 µM [activator, single point]	–
COc1ccc2[nH]c3c4c(ccc3c2c1)C(=O)C=CC4=O	inconclusive: 23.1 µM [falling, single point]	–
CC1C(O)=C(c2nc3ccccc3[nH]2)C(=N)N1c1ccccc1 (stereo not drawn)	inconclusive: 5.17 µM [activator, full curve]	–
COc1cc(OC)c(NC(=O)CC(C)S(=O)(=O)c2ccc3c(c2)NC(=O)CO3)cc1Cl (stereo not drawn)	–	inactive: -10.7%
CC(C)c1ccc(NC(=S)N2CCCC(c3ccc(F)cc3)=N2)cc1	inconclusive: 20.6 µM [activator, partial curve]	–
CCCNC(=O)c1ccc(COc2cccc3ccccc23)o1	inconclusive: 18.4 µM [falling, single point]	–

Grouped by structure: the entries above containing sulfur
SMILES	Potency	activity change, negative = inhibition
CCCC(=O)Nc1nc(-c2ccc3c(c2)CCN3S(C)(=O)=O)cs1	active: 8.2 µM	–
COc1ccc(N(Cc2cc3ccc(C)cc3[nH]c2=O)S(=O)(=O)c2ccccc2)cc1	inconclusive: 29.1 µM [falling, single point]	–
Cc1c(C(=O)NCCSCc2ccc(Cl)cc2Cl)cccc1[N+](=O)[O-]	inconclusive: 18.4 µM [falling, single point]	–
CCOc1ccc(S(=O)(=O)N2CCN(C(=S)NCc3ccccc3)CC2)cc1	active: 25.9 µM	–
C=CCn1cc(C(=O)NCc2ccc3c(c2)OCO3)c(=O)c2cc(S(=O)(=O)N(CC)CC)ccc21	inconclusive: 18.4 µM [falling, single point]	–
CCc1ccc(-c2cc(C)no2)cc1S(=O)(=O)N1CCOc2ccccc21	inconclusive: 23.1 µM [falling, single point]	–
O=C(CSc1ncc2c(n1)-c1cc(Cl)ccc1N(Cc1ccccc1)S2(=O)=O)NCCc1ccccc1	inconclusive: 29.1 µM [falling, single point]	–
COc1cccc(NC(=S)N(CCc2c(C)[nH]c3ccccc23)Cc2cccs2)c1	inconclusive: 32.6 µM [falling, single point]	–
CS(=O)(=O)Nc1ccc(-c2nc3ccccc3s2)cc1	inconclusive: 1.16 µM [activator, partial curve]	–
O=C(CCS(=O)(=O)Cc1ccccc1F)N1CCc2ccccc2C1	inconclusive: 7.31 µM [activator, full curve]	–
COc1ccc(NC(=O)c2cccn2-c2nnc(N3CCCCC3)s2)c(OC)c1	inconclusive: 23.1 µM [activator, single point]	–
COc1cc(OC)c(NC(=O)CC(C)S(=O)(=O)c2ccc3c(c2)NC(=O)CO3)cc1Cl (stereo not drawn)	–	inactive: -10.7%
CC(C)c1ccc(NC(=S)N2CCCC(c3ccc(F)cc3)=N2)cc1	inconclusive: 20.6 µM [activator, partial curve]	–

The list goes on:

SMILES	Potency	activity change, negative = inhibition
CCOC(=O)c1ccc(NC(=S)NNC(=O)c2cc(-c3cccnc3)nc3ccccc23)cc1	–	inactive: -13.9%
Cc1c(C(=O)NCc2cccnc2)oc2ccc(S(=O)(=O)N3CCCCCC3)cc12	inconclusive: 0.82 µM [falling, full curve, poor fit]	–
CCCn1c(SCc2ccon2)nc2ccccc2c1=O	inconclusive: 14.6 µM [falling, partial curve, poor fit]	–
COc1ccc2cc3cc(C(=O)N4CCN(c5ccccn5)CC4)oc3nc2c1	–	inactive: 3.32%
O=C1c2ccccc2C(=O)N1c1cccc2ncccc12	–	inactive: -7.37%
Cc1cccc(NC(=O)CSc2nc3ccc(N4C(=O)c5ccccc5C4=O)cc3s2)c1C	active: 20.6 µM	–
Cc1ccnc(NC(=O)CCC(=O)N(CC(=O)NCCc2ccccc2)c2ccccc2F)c1	inconclusive: 29.1 µM [falling, single point]	–
CC(C)(C)C(C(=O)O)N1CCS(=O)(=O)CC1 (stereo not drawn)	inconclusive: 20.6 µM [activator, partial curve, poor fit]	–
COC(Cn1c(-c2cccc(S(=O)(=O)N(C)C)c2)n[nH]c1=S)OC	inconclusive: 13 µM [activator, partial curve, poor fit]	–
CC(C)Cc1[nH]c(=O)c(C#N)c2c1COC(C)(C)C2	–	inactive: 3.41%
O=C(CSc1ncn[nH]1)Nc1ccccc1Sc1ccc(Cl)cc1	inconclusive: 18.4 µM [falling, partial curve, poor fit]	–
CCc1cc2cc(OC)ccc2nc1SCC(=O)Nc1cc(OC)c(OC)cc1C(=O)O	inconclusive: 29.1 µM [activator, single point]	–
C/C(=N\NC(=S)Nc1ccc(C)c(C)c1)c1ccc(N2CCOCC2)cc1	–	inactive: -25.8%
COc1cccc(N2CCN(c3ccc4nnc(CCC(=O)Nc5cc(C)ccn5)n4n3)CC2)c1	inconclusive: 0.146 µM [falling, full curve, poor fit]	–
c1ccc2c(c1)nc(CN1CCOCC1)n1c3ccccc3nc21	inconclusive: 5.8 µM [activator, partial curve]	–
CCOC(=O)c1c(C)[nH]c(C)c1S(=O)(=O)N(C)CC(=O)NCc1ccc(C)cc1	inconclusive: 18.4 µM [falling, partial curve, poor fit]	–
NS(=O)(=O)c1ccc(NC(=S)Nc2nn(Cc3ccc(Cl)cc3Cl)cc2Cl)cc1	inconclusive: 20.6 µM [falling, partial curve, poor fit]	–
C[C@H]1c2cccc(O)c2C(O)=C2C(=O)[C@]3(O)C(O)=C(C(N)=O)C(=O)[C@@H](N(C)C)C3[C@@H](O)C21 (stereo partly drawn)	inconclusive: 9.2 µM [falling, partial curve, poor fit]	–
Nc1nnnn1/N=C/c1ccccc1OCc1ccc(Cl)cc1	inconclusive: 0.731 µM [falling, partial curve, poor fit]	–
S=c1[nH]nc(-c2cc(-c3ccccc3)n[nH]2)n1/N=C/c1ccc(Br)s1	inconclusive: 25.9 µM [falling, single point]	–
Fc1ccc(C(c2nnnn2Cc2cccs2)N2CCN(c3ccccc3)CC2)cc1 (stereo not drawn)	inconclusive: 25.9 µM [falling, partial curve, poor fit]	–

SMILES	Potency	activity change, negative = inhibition
CCN(CC)S(=O)(=O)c1ccc(Cc2ncc(C(F)(F)F)cc2Cl)s1	inconclusive: 29.1 µM [falling, single point]	–
COc1cccc(C2CC(=O)N3CN(c4ccccc4F)CSC3=C2C#N)c1 (stereo not drawn)	–	inactive: 7.72%
COc1cc(CCC(=O)NNC(=O)c2cccc(Cl)c2)cc(OC)c1OC	inconclusive: 0.0651 µM [falling, full curve, poor fit]	–
O=C(NC(=S)N(CCCCO)C1CCCCC1)c1sc2ccccc2c1Cl	active: 11.6 µM	–
COc1ccccc1NS(=O)(=O)c1cc(NC(=S)Nc2cc(C)cc(C)c2)ccc1Cl	inconclusive: 29.1 µM [falling, single point]	–
Cc1ccc2nc3c(cc(C(=O)NC4CCS(=O)(=O)C4)n3Cc3ccccc3)c(=O)n2c1 (stereo not drawn)	–	inactive: 7.11%
CCCCOc1ccc(CNC(=O)c2cnc3sc(N4CCCCCC4)nn3c2=O)cc1	inconclusive: 29.1 µM [activator, single point]	–
Cc1c(C(=O)NCc2cccc(F)c2)oc2c1-c1[nH]ncc1CC2	inconclusive: 13 µM [falling, partial curve]	–
O=C(Nc1cccc2cccnc12)c1ccc2c(c1)OCCO2	–	inactive: 20.2%
COc1ccccc1/C=C/C=N/NC(=O)c1ccccn1	inconclusive: 5.17 µM [activator, partial curve]	–
C/C=C(\C)C(=O)OC1[C@H](OC(C)=O)C2(CO)C(CC1(C)C)C1=CCC3C4(C)CCC(O[C@@H]5O[C@H](C(=O)O)[C@@H](O[C@@H]6O[C@H](CO)[C@@H](O)[C@H](O)[C@H]6O)[C@H](O)[C@H]5O[C@H]5O[C@H](CO)[C@@H](O)[C@H](O)[C@H]5O)[C@](C)(CO)C4CCC3(C)[C@]1(C)C[C@H]2O (stereo partly drawn)	active: 18.4 µM	–
O=C(COc1cccc(F)c1)N[C@@H](Cc1ccccc1)c1nc2ccccc2[nH]1	inconclusive: 29.1 µM [falling, single point]	–
CCCCN(C(=O)c1ccc(-c2ccc([N+](=O)[O-])cc2)o1)c1c(N)n(CC(C)C)c(=O)[nH]c1=O	–	inactive: -15.6%
O=c1[nH]c2cc([N+](=O)[O-])ccc2c2ccc([N+](=O)[O-])cc12	inconclusive: 2.59 µM [falling, full curve]	–
CC1Sc2ccc(S(=O)(=O)CCC(=O)N3CCN(c4ccccc4F)CC3)cc2NC1=O (stereo not drawn)	inconclusive: 14.6 µM [falling, partial curve, poor fit]	–
O=C(c1ccc(F)cc1)N1CCN(c2cnn(-c3ccccc3)c(=O)c2Cl)CC1	inconclusive: 20.6 µM [falling, partial curve]	–
Cn1nc([N+](=O)[O-])nc1Sc1cccc2cccnc12	inconclusive: 29.1 µM [falling, single point]	–
O=C(c1ccccc1)c1cc2ccc(O)cc2oc1=O	–	inactive: 10.5%
CCCCC(=O)Nc1ccc(C)c(S(=O)(=O)N2CCCCCC2)c1	active: 16.4 µM	–
CCOc1ccc2nc(N3CCCC(C(=O)Nc4ccc(CC)cc4)C3)sc2c1 (stereo not drawn)	inconclusive: 3.26 µM [activator, partial curve, poor fit]	–
COc1ccc(CCN2C(=O)CSC2c2ccc(OC)c(OC)c2)cc1OC (stereo not drawn)	inconclusive: 23.1 µM [falling, partial curve, poor fit]	–

For convenience, some entries already given.
SMILES	Potency	activity change, negative = inhibition
COc1ccccc1/C=C/C=N/NC(=O)c1ccccn1	inconclusive: 5.17 µM [activator, partial curve]	–
C/C=C(\C)C(=O)OC1[C@H](OC(C)=O)C2(CO)C(CC1(C)C)C1=CCC3C4(C)CCC(O[C@@H]5O[C@H](C(=O)O)[C@@H](O[C@@H]6O[C@H](CO)[C@@H](O)[C@H](O)[C@H]6O)[C@H](O)[C@H]5O[C@H]5O[C@H](CO)[C@@H](O)[C@H](O)[C@H]5O)[C@](C)(CO)C4CCC3(C)[C@]1(C)C[C@H]2O (stereo partly drawn)	active: 18.4 µM	–
